Assay results published in ChEMBL document CHEMBL5053556, “Design, Synthesis, and Biological Evaluation of a Novel Series of Teriflunomide Derivatives as Potent Human Dihydroorotate Dehydrogenase Inhibitors for Malignancy Treatment” (J Med Chem, 2021).
≈ marks a conversion by molar mass, not a printed value.

Key:
physchem = conditions: buffer
Raji = test: Antiproliferative activity against human Raji cells assessed as cell growth inhibition at 0.06 uM incubated for 96 hrs by MTT assay; assay type: functional; set-up: scale not given: the % may be the effect or the level left

C/C(O)=C(\C#N)C(=O)Nc1cc(O[C@@H](C)C(F)(F)F)c(C(=O)Nc2c(F)cccc2F)cc1F showed a solubility (physchem) of 20.1 mg/mL (≈ 41.2 mM) and an Activity (Raji) of 20.1%.
